Assay results from paper doi:10.1101/2022.11.04.515170.
These are yes or no findings as the source states them, for the method shown. In cells and extracts the contact can be indirect. These calls come from enrichment with a bait or labelling near it, and not all partners need be listed. Tags and fused reporters may be left off the sequences shown.

Chains of the proteins cited; added tags and fusions are not shown. Residues count along the entry.
UniProt P11717, residues 41-2491: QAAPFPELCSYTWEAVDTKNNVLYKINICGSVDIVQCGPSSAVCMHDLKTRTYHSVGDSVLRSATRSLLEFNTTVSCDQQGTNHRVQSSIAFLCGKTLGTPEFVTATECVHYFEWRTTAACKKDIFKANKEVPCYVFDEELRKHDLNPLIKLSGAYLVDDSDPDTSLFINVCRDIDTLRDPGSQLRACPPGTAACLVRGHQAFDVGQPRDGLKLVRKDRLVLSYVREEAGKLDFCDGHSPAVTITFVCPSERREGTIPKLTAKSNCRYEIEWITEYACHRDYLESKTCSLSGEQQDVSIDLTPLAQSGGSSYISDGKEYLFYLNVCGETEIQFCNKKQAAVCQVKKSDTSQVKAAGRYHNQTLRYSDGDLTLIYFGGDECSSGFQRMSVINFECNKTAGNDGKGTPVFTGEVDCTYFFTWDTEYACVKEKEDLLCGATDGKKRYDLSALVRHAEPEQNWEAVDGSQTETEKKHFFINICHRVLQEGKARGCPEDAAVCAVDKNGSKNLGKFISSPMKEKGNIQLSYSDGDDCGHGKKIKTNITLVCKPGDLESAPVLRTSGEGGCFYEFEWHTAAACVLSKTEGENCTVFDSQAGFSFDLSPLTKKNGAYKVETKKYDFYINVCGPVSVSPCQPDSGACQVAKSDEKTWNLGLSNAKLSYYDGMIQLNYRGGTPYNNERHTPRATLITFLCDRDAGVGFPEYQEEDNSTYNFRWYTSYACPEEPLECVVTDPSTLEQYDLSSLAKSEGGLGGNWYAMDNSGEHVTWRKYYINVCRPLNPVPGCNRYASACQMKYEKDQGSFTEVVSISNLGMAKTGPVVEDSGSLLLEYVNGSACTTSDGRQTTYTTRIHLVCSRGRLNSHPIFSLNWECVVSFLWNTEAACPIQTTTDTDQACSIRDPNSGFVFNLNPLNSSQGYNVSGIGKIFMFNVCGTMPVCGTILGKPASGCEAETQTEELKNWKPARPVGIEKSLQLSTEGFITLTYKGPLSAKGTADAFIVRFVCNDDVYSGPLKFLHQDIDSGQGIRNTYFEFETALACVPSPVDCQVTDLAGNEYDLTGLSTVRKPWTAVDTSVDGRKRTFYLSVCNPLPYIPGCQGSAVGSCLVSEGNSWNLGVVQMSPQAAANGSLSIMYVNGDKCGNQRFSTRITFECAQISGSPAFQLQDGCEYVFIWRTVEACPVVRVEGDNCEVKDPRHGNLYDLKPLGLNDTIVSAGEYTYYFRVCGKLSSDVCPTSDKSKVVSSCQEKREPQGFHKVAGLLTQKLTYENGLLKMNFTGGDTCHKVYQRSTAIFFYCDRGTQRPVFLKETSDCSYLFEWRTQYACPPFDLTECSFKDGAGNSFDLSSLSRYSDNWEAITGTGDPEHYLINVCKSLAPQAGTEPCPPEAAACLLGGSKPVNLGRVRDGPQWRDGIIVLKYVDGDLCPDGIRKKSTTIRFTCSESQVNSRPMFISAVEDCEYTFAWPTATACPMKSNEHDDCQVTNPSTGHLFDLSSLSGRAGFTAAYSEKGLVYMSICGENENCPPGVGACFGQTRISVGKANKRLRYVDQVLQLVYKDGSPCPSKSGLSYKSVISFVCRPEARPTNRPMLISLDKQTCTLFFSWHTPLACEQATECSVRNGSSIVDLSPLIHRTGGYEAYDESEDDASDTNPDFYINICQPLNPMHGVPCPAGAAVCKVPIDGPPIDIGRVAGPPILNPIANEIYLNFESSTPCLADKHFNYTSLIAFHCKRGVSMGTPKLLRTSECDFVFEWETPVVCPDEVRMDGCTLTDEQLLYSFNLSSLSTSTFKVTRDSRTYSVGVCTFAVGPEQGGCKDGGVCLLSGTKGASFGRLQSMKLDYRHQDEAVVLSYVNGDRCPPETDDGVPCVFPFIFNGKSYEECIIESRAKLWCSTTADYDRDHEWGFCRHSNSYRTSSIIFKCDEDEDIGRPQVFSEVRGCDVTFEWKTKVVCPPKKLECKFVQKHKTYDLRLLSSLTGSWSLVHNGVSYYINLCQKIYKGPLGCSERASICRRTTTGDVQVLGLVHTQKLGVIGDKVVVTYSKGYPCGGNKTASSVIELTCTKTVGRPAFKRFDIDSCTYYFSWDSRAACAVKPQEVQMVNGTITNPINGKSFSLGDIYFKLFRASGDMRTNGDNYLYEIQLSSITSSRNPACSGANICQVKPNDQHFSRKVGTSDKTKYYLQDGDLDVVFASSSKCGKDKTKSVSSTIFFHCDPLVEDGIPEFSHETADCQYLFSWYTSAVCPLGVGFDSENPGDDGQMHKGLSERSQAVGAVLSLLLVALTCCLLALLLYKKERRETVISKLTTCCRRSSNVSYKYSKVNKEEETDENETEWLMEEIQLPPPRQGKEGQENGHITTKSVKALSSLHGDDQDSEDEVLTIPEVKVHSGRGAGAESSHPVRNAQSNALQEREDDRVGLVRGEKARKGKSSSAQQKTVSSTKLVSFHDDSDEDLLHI
UniProt P33176: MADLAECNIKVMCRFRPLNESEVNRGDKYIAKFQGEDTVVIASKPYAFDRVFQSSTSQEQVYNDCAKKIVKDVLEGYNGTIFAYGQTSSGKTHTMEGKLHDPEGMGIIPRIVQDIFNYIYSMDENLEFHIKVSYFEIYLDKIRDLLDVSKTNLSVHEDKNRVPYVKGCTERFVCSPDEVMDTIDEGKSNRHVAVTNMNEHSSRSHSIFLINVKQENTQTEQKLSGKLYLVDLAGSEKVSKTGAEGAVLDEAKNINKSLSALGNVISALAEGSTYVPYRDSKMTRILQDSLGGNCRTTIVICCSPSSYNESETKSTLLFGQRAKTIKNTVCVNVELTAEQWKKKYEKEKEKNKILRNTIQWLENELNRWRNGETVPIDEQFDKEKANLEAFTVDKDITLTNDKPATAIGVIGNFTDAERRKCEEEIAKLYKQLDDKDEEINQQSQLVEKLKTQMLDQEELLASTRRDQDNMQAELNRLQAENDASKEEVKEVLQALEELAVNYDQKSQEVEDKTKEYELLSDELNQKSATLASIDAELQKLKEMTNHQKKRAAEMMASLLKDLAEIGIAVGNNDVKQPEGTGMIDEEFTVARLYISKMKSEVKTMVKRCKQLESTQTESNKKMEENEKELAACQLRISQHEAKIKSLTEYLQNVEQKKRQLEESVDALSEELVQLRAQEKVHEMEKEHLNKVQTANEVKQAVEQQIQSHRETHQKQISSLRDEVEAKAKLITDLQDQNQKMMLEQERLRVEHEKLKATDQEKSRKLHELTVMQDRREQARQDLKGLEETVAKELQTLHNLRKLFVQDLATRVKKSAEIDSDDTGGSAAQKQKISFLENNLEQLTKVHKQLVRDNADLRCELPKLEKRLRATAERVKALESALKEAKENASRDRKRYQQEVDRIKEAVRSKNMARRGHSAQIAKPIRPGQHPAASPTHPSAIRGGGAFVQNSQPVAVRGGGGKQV

Target: T1, GFP-SNX32 WT (UniProt Q86XE0)
T1 sequence: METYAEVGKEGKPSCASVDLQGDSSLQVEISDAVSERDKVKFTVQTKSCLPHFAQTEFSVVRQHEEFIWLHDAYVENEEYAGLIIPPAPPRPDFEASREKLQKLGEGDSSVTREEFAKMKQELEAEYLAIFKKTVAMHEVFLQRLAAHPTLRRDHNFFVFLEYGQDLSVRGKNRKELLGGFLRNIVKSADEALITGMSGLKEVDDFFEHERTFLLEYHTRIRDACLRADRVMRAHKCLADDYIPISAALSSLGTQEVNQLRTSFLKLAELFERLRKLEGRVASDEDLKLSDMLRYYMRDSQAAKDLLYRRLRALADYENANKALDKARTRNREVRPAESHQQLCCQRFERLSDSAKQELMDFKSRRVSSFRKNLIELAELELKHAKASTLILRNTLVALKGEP
Assay: affinity purification with mass spectrometry

Row | Substance | binding
1 | Basigin (from UniProt P35613-2) (receptor) | binds
2 | Cation Independent Mannose-6-Phosphate Receptor (from UniProt P11717 41-2491) | binds
3 | kinesin-1 heavy chain (from UniProt P33176 1-963) | binds
